These are yes or no findings as the source states them, for the method shown. Binding can be weak; no strength is given.
How the values were obtained:
[1] = target: T1, C-terminal half of TPX2 (amino acids 319-716) (Xenopus laevis) (UniProt Q6NUF4); experiment: BLI; Octet (ForteBio); TPX2 attached to sensors, importin concentration varied; normalized amplitudes; apparent Kd; both purified
T1 sequence: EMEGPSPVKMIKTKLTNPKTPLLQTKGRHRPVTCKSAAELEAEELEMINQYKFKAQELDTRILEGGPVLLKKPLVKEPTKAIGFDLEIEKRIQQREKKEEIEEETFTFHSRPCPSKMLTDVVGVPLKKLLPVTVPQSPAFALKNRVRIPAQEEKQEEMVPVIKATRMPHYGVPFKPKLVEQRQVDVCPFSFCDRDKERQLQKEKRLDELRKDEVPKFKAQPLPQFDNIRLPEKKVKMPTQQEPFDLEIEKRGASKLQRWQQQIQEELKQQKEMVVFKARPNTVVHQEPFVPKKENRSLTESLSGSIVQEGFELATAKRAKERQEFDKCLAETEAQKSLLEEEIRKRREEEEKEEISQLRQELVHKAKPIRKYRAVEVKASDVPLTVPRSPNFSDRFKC

[2] = target: T2, TPX2 construct 1 to 99 (Xenopus laevis) (UniProt Q6NUF4); experiment: as above
T2 sequence: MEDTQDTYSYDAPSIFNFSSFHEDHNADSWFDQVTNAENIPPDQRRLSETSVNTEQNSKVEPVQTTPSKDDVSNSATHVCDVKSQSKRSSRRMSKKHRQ

binding [1]: binds weakly
binding [2]: binds weakly
Substance: importin-αΔIBB (truncated importin-α without the importin-β-binding domain) (Xenopus laevis) (domain or fragment)

Reference: publication PMC8390506
